From article PMC8745574 come the findings set out here.

For assay [1], the target named is T1, AtTERT TEN construct (1-233 aa) (Arabidopsis thaliana) (UniProt Q9SPU7).
T1 sequence: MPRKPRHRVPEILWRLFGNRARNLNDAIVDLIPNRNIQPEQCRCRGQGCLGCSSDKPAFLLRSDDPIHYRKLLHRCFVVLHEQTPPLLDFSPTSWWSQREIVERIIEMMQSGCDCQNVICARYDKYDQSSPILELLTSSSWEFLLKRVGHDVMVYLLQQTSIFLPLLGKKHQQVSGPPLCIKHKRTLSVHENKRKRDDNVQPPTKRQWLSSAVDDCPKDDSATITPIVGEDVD
Put plainly: two-hybrid; Matchmaker GAL4 system, pGADT7-DEST/pGBKT7-DEST, S. cerevisiae PJ69-4α, 30 °C; growth on -LWH plates (with increasing 3-aminotriazol) and -LWHAde plates.

Assay [2] deals with T2, POT1a (Arabidopsis thaliana) (UniProt Q56Y52).
T2 sequence: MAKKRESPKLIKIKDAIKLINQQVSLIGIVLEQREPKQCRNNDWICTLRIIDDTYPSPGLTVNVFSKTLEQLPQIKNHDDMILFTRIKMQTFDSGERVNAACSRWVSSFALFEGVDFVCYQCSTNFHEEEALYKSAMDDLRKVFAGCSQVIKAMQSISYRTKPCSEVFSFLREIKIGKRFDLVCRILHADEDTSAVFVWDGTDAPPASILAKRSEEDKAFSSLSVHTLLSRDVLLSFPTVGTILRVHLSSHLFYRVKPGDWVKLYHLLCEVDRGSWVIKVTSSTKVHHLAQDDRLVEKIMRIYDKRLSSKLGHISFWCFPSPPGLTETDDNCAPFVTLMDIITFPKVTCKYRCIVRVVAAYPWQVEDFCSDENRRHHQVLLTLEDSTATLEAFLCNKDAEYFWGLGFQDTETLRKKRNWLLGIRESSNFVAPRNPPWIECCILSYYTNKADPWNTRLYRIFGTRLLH
The description is as above.

These are yes or no findings as the source states them, for the method shown. Some binding calls cover weakened binding; strength is not graded here.

B1: KNAT4 (protein, UniProt P48001 1-393)
chain: MAFHNNHFNHFTDQQQHQPPPPPQQQQQQHFQESAPPNWLLRSDNNFLNLHTAASAAATSSDSPSSAAANQWLSRSSSFLQRGNTANNNNNETSGDVIEDVPGGEESMIGEKKEAERWQNARHKAEILSHPLYEQLLSAHVACLRIATPVDQLPRIDAQLAQSQNVVAKYSTLEAAQGLLAGDDKELDHFMTHYVLLLCSFKEQLQQHVRVHAMEAVMACWEIEQSLQSFTGVSPGEGTGATMSEDEDEQVESDAHLFDGSLDGLGFGPLVPTESERSLMERVRQELKHELKQGYKEKIVDIREEILRKRRAGKLPGDTTSVLKSWWQSHSKWPYPTEEDKARLVQETGLQLKQINNWFINQRKRNWHSNPSSSTVSKNKRRSNAGENSGRDR
In the case of B1, the binding result in assay [1] and in assay [2] was “binds” in each case.

B2: RPA3 (replication protein A3) (protein, UniProt Q6NLG7 1-106)
chain: MDTSSPAAFVNGALLRRYIGQKVRAVIQVIRSDVGSVIGKSTDDQQIVVKGSPQPPLTTYLEVIGIAETDNTIRAEVWTNFGDSFDVQNYNELCKLANGEFRHLFI
B2: the binding entry in assay [1] and in assay [2] was “no binding” throughout.

B3: NAT10 (protein, UniProt Q9XIK4 1-1028)
chain: MRKKVDERIRTLIENGVKLRHRSMFVIIGDKARDQIVNLHHILSKSVVKSNPSVLWCYKNRLDISSHNKKRAKQLKKMKERGQLDPEKLDAFSLFLDVVDVTHCLYKDSERILGNTFGICILQDFEALTPNLLARTIETVEGGGLVVLLLQSLASLTSLCTMVMDVHDRFRTESHSEASGRFNERFLLSLASCKACVVMDDELNLLPLSSHIKSITKVPTKEDSEALSEAERDLKSLKDALNDDFPVGPLINKCCTLDQGKAVVTFFDAILDKTLRSIVALIASRGRGKSAALGLAVAGAVAAGYSNIYVTAPSPDNLKTVFEFVCKGFDALEYKEHLEYDVVRSVNPEFNKAIVRINIFKQHRQTIQYIQPHEHEKLSQVELLVIDEAAAIPLPVVKSLLGPYLVFLSSTVSGYEGTGRSLSLKLLQQLEEQSRAPVTGVEGSLSGCLFKKIELSESIRYASGDPIESWLNGLLCLDVANCLPNPACHPLPSQCDLYYVNRDTLFSYHKDSELFLQRMMALCVSSHYKNSPNDLQLLSDAPAHHLFVLLGPVDESKNQLPDILCVIQVCLEGQISRKSAEKSLREGHSPHGDQIPWKFCEQFRDVVFPKLSGARIVRIAVHPNAMKMGYGSAAVELLTRYFEGQLASISEGDDELEVEPSPVRVTEAAAKVSLLEEQIKPRANLPPLLVPLRDRRPERLHYIGVSFGLTLDLFRFWRKHKFAPFYISQIPSAVTGEHTCMLLKPLTLSNDEFEVDESDELGFFAPFYKDFRIRFSKLLSDKFKKMDYKLAMSVLNPKINFPEVDLTGNSPDGFLKKLDGVLSPYDMERFRAYTANLVDFNLVYDICKTLAHHYFQEKLPVSLSYVQASVLLCLGLQESDFSSIERQMQLERGQIYSLLLKVGKKLYKYLNGIATKELESTLPRLKDRVLEPHKVSVDEDLREGAKEVEEQMRARIEELLDPELLDQFAIGDKEAEALQKSKISSSGLISIESTKTDNKKEKPSGFDKSAKKRGNDKHSSTSNKKRRA
For the molecule B3, in assay [2], the binding result is given as “no binding”.

B4: KNAT5 (protein, UniProt P48002 1-383)
chain: MSFNSSHLLPPQEDLPLRHFTDQSQQPPPQRHFSETPSLVTASFLNLPTTLTTADSDLAPPHRNGDNSVADTNPRWLSFHSEMQNTGEVRSEVIDGVNADGETILGVVGGEDWRSASYKAAILRHPMYEQLLAAHVACLRVATPVDQIPRIDAQLSQLHTVAAKYSTLGVVVDNKELDHFMSHYVVLLCSFKEQLQHHVCVHAMEAITACWEIEQSLQSLTGVSPSESNGKTMSDDEDDNQVESEVNMFDGSLDGSDCLMGFGPLVPTERERSLMERVKKELKHELKQGFKEKIVDIREEIMRKRRAGKLPGDTTSVLKEWWRTHSKWPYPTEEDKAKLVQETGLQLKQINNWFINQRKRNWNSNSSTSSTLTKNKRKRTGKS
B4: the binding entry in assay [1] and in assay [2] was “binds” each time.

B5: armadillo-repeat containing protein LFR (leaf and flower related) (protein, UniProt Q9LS90 1-460)
chain: MQKRELGKSGGNSGGSSGPPAKRGRPFGSTSANSAAAAAAAAAADAMSPSALLGPSLLVHNSFVEQNNRRIVLALQSGLKSEVTWALNTLTLLSFKEKEDIRRDVMPLAKIAGLLDALLLIIDDWRDIALPKDLTRGTRVRTLGTNASVTGFGNEYDALASIQPPGSGIGSSAAEALGKKSTGKHQSSQWWMEEDGLFNLDDEGRSEKQMCAIAASNVIRNFSFMPDNEVVMAQHRHCLETVFQCIHDHMTEDEELVTNSLETIVNLAHLMDLRIFSSLKQSYININEKKAVQAVVGILNSSVKAWNCAAAELLGRLIINPDNEPFISPLIPQIHKRLIDLLSIQAVDAQAAAVGALYNLVEVNMDCRLKLASERWAVDRLLKVIKTPHPVPEVCRKAAMILENLVSEPQNRGLLLAYENAFAELLFQEGKYSDSFARILYELTARSNSRVASARGIWGM
As for B5, the binding result in assay [1] and in assay [2] was “binds” each time.

B6: NRP1 (protein, UniProt Q9CA59 1-256)
chain: MVADKSKKSKIEEKGEEENLEQIDAELVLSIEKLQEIQDDLEKINEKASDEVLEVEQKYNVIRKPVYDKRNEVIQSIPGFWMTAFLSHPALGDLLTEEDQKIFKYLNSLEVEDAKDVKSGYSITFHFTSNPFFEDAKLTKTFTFLEEGTTKITATPIKWKEGKGLPNGVNHDDKKGNKRALPEESFFTWFTDAQHKEDAGDEIHDEVADIIKEDLWSNPLTYFNNDADEEDFDGDDDGDEEGEEDDDDEEEEDGEE
As to B6, the binding result in assay [2] is reported as “no binding”.

B7: ZML1 (ZIM-LIKE 1) (protein, UniProt Q8GXL7 1-297)
chain: MDDLHGRNGRMHIGVAQNPMHVQYEDHGLHHIDNENSMMDDHADGGMDEGVETDIPSHPGNSADNRGEVVDRGIENGDQLTLSFQGQVYVFDRVSPEKVQAVLLLLGGREVPHTLPTTLGSPHQNNRVLGLSGTPQRLSVPQRLASLLRFREKRKGRNFDKTIRYTVRKEVALRMQRKKGQFTSAKSSNDDSGSTGSDWGSNQSWAVEGTETQKPEVLCRHCGTSEKSTPMMRRGPDGPRTLCNACGLMWANKGTLRDLSKVPPPQTPQHLSLNKNEDANLEADQMMEVTGDISNTQ
Consider B7, for which the binding entry in assay [1] and in assay [2] was “binds” in each case.

B8: NRP2 (protein, UniProt Q8LC68 1-255)
chain: MVTDKSKKAKTEEENVEQIDAELVLSIEKLQEIQDDLEKINEKASDEVLEVEQKYNVIRKPVYDKRNEIIKTIPDFWLTAFLSHPALGELLTEEDQKIFKYLSSLDVEDAKDVKSGYSITFSFNPNPFFEDGKLTKTFTFLEEGTTKITATPIKWKEGKGLANGVNHEKNGNKRALPEESFFTWFSDAQHKEDVEDEMQDEVADIIKEDLWPNPLTYFNNDADEEDFDGDDDGDEEEKEGDSDEDDDEEDEVGEE
For the molecule B8, the binding result in assay [2] is “no binding”.

B9: ETG1 (E2F target gene 1) (protein, UniProt Q501D5 1-589)
chain: MGGPAYDCLTNPLGAVRFSFVNALSSGYDPASSVGKDWGVVDLFRHYFSDESAISQVPILDSSSIKWVQPKTLVRFRGMIQDMLGNEFYAGAYKDDSTWRTNKYSDVSQFPEGSSTEIQVWERRLLYCVPVPGKNQWTECSSQELKNRFLDLTGQNREKRVRVDEEMTDSMDSSTLEAGRNGSPFKKMKVGEATSSASESQVPQTSGIPPATSADSLPCLVKIYDSPESDLKLNDVVEFLGVLTFDPIVMMDTDTLDENSDALSEAESVQMPSGKVPRLHCLIHRKLETQHFLHGSSLLPEPKSPQIFKEIRESLMKYLTGLLGNDHIAAQFLLLHLLSKVHGRVDNVAVGKLSLNLIHLNKESMSIFGTQLSGALKSLLPFTQSIPLTIEYLNTASFGPKKDYGINRLMPGVLQIADGTHLILDETELQPGTLNSVGVENANLLKNLLECQKVEYDFQYYKMEMATDVQMLIFSEGKSNIMPADLVLPLQPSQVNSLEVITPETAETWRCYLATCKSLSHSIGQELQQVVENDLVAARQTDRSLGSQDLSRLLTMARMMSVSYGETTLSLEHWQMVLELERLRKERLK
As for B9, the binding result in assay [1] and in assay [2] was “no binding” in each case.

B10: MCM5, full length (protein, UniProt O80786 1-727)
chain: MSGWDEGAVYYSDQPQFPEAGDAATISPHAVLTKFKEFIRNFEIEQNCFPYREALLDNPKRLVVHLEDLLSFDSDLPSLIRSAPADYLPVFEKAAGEVLTGLKMREANEGGVMEEPLTRDVQILLTSREDPVSMRLLGAQYISKLVKISGISIAASRVKAKATYVFLVCKNCKKTREVPCRPGLGGAIVPRSCDNIPQPGEEPCPLDPWMVVPDRSQYVDQQTLKLQENPEDVPTGELPRNMLLSVDRHLVQTIVPGTRLTVMGIYSIFQASSSSNSHKGAVAIRQPYIRVVGLEDTNEASSRGPANFTPDEEEEFKKFADSQDVYKNICTKIAPSIFGHEDVKRAAACLLFGGSRKSLPDGVKLRGDINVLLLGDPSTAKSQFLKFVEKTAPIAVYTSGKGSSAAGLTASVIRDSSTREFYLEGGAMVLADGGVVCIDEFDKMRPEDRVAIHEAMEQQTISIAKAGITTVLNSRTSVLAAANPPSGRYDDLKTAQDNIDLQTTILSRFDLIFIVKDIRKYSQDKEIASHIIRVHASANKFSDENTDSKEDNWLKRYIQYCRARCHPRLSKDAAENLQRKYVTIRMDMKRRAHETGEAAPIPITVRQLEAIVRLSESLAKMRLSHEATPDDVDKAFKLFDTSTMDAARSGINQQINITGEMANEIKQAETQIKRRMGIGARLSERRLIEDLARMGMNDSMVRRALLIMHQRGEVEYQRERRSIVRKA
Turning to B10, the binding result in assay [1] is on record as “binds”.
